Test results taken from patent US20230374092A1.
These are yes or no findings as the source states them, for the method shown. Some results given as binding are weak or reduced against the parent protein; the word gives no strength. For some assays here: Sequences can lack the tags named with a protein.

Chains of the proteins cited; added tags and fusions are not shown.
UniProt P09874: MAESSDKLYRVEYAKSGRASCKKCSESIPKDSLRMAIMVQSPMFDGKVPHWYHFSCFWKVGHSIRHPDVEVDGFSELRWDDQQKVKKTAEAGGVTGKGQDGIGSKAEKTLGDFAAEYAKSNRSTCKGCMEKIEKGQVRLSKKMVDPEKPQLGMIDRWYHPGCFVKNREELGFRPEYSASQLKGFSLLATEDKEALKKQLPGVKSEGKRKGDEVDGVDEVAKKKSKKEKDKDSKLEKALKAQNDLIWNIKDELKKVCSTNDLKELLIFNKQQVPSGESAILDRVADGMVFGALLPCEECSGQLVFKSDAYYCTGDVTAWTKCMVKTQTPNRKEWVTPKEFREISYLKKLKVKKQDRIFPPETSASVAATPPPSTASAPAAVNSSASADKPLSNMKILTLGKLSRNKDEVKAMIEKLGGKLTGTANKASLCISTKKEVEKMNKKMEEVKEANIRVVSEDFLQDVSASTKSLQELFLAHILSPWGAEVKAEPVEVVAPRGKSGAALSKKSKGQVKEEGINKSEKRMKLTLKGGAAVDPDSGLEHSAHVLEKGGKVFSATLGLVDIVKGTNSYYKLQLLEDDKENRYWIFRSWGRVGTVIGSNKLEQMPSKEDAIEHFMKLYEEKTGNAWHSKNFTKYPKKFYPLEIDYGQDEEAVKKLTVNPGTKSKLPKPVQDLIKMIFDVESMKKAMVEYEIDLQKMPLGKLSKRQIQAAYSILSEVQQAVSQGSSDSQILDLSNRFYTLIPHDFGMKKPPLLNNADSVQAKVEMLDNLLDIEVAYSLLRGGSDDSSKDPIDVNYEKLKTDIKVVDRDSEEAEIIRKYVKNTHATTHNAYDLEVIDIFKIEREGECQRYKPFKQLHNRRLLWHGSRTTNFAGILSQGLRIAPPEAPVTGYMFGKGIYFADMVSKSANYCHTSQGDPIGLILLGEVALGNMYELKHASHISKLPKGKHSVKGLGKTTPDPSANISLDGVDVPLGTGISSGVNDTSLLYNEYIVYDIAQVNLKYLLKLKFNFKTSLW
UniProt Q15046: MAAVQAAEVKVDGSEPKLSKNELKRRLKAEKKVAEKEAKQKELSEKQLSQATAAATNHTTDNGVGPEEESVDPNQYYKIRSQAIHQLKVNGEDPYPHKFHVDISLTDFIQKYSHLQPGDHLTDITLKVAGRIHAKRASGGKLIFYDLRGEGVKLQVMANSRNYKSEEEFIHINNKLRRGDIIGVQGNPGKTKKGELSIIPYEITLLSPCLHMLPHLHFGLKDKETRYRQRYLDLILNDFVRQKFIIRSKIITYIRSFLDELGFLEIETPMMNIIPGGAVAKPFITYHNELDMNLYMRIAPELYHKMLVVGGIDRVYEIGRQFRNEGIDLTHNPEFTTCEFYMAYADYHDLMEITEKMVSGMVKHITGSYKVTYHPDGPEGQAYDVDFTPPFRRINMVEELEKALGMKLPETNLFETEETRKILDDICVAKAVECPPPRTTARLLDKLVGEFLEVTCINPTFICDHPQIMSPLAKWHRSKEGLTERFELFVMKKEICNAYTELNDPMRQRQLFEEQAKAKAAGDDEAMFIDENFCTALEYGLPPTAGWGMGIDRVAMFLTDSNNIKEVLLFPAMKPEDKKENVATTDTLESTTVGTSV

Assays:
PARP-1 [1] = biological target: PARP-1 (UniProt P09874); experiment: binding assay (figure legend)
PARP-1 [2] = biological target: PARP-1 (UniProt P09874); experiment: PARP-1 pull-down from transfected SH-SY5Y cells
PARP-1 [3] = biological target: PARP-1 (UniProt P09874); experiment: binding assay (figure legend); AIMP2 is the weaker binder
PARP-1 [4] = biological target: PARP-1 (UniProt P09874); experiment: PARP-1 pull-down from transfected SH-SY5Y cells; AIMP2 is the weaker binder
[5] = biological target: KARS1 (lysyl-tRNA synthetase), full length (UniProt Q15046); experiment: IP of myc-KARS1 from N2A cells, immunoblot

B1: AIMP2-DX2 (exon 2-deleted AIMP2 splicing variant) (protein)
chain: MPMYQVKPYHGGGAPLRVELPTCMYRLPNVHGRSYGPAPGAGHVQDYGALKDIVINANPASPPLSLLVLHRLLCEHFRVLSTVHTHSSVKSVPENLLKCFGEQNKKQPRQDYQLGFTLIWKNVPKTQMKFSIQTMCPIEGEGNIARFLFSLFGQKHNAVNATLIDSWVDIAIFQLKEGSSKEKAAVFRSMNSALGKSPWLAGNELTVADVVLWSVLQQIGGCSVTVPANVQRWMRSCENLAPFNTALKLLK
Q: Which results are given for B1?
A: binding (PARP-1 [1]): binds; binding (PARP-1 [2]): binds

B2: AIMP2 (aminoacyl tRNA synthase complex-interacting multifunctional protein 2), expressed from a plasmid (protein)
chain: MPMYQVKPYHGGGAPLRVELPTCMYRLPNVHGRSYGPAPGAGHVQEESNLSLQALESRQDDILKRLYELKAAVDGLSKMIQTPDADLDVTNIIQADEPTTLTTNALDLNSVLGKDYGALKDIVINANPGSPPLSLLVLHRLLCEHFRVLSTVHTHSSVKSVPENLLKCFGEQNKKQPRQDYQLGFTLIWKNVPKTQMKFSIQTMCPIEGEGNIARFLFSLFGQKHNAVNATLIDSWVDIAIFQLKEGSSKEKAAVFRSMNSALGKSPWLAGNELTVADVVLWSVLQQIGGCSVTVPANVQRWMRSCENLAPFNTALKLLK
Q: For B2, which binding (PARP-1 [3]) is on record?
A: Its binding is “binds”.

Q: What about the binding (PARP-1 [4]) of the same binder?
A: Its binding is “binds”.

B3: AIMP2 detected in the myc-KARS1 immunoprecipitate from N2A cells (protein, UniProt Q8R010 1-320, looked up)
chain: MPMYQVKPYHGGSAPLHVELPTCMYRLPNVHSKTTSPATDAGHVQETSEPSLQALESRQDDILKRLYELKAAVDGLSKMIHTPDADLDVTNILQADEPTTLATNTLDLNSVLGKDYGALKDIVINANPASPPLSLLVLHRLLCERYRVLSTVHTHSSVKNVPENLVKCFGEQARKQSRHEYQLGFTLIWKNVPKTQMKFSVQTMCPIEGEGNIARFLFSLFGQKHNAVTLTLIDSWVDIAMFQLREGSSKEKAAVFRSMNSALGRSPWLVGNELTVADVVLWSVLQQTGGSSGAAPTNVQRWLKSCENLAPFSTALQLLK
Q: Which binding [5] does the source give for B3 here?
A: Its binding is “binds”.
